Results taken from PMC9051119 (RSC Advances, 2020).

Assays:
[1] = Equilibrium solubility in model lipid-based formulations; details: value of the main text; for Solubility in MC-SEDDS: medium chain SEDDS
[2] = single excipient, result in words

With `C(=C\c1ccccc1)/CN1CCN(C(c2ccccc2)c2ccccc2)CC1` [Compound 1k, cinnarizine] the “Solubility in LC-SEDDS” value ([1]; long chain SEDDS) was 249 mg/g and the “Solubility in MC-SEDDS” value [1] was 261 mg/g.
In the case of `C(=C\c1ccccc1)/CN1CCN(C(c2ccccc2)c2ccccc2)CC1` [Compound 1, cinnarizine], the “Equilibrium solubility in glyceryl tricaprylate/caprate” value [2] is reported as “high solubility”.
For `C(=C\c1ccccc1)/CN1CCN(C(c2ccccc2)c2ccccc2)CC1` [Compound 1g, cinnarizine], the “Solubility in MC-SEDDS” value [1] was 99 mg/g.
For `C(=C\c1ccccc1)/CN1CCN(C(c2ccccc2)c2ccccc2)CC1` [Compound 1a, cinnarizine], the “Equilibrium solubility in glyceryl tricaprylate/caprate” value [2] was “practically insoluble”.
